This assay has as its target T1, HA epitope-tagged Rem2 protein (UniProt Q9WTY2).
T1 sequence: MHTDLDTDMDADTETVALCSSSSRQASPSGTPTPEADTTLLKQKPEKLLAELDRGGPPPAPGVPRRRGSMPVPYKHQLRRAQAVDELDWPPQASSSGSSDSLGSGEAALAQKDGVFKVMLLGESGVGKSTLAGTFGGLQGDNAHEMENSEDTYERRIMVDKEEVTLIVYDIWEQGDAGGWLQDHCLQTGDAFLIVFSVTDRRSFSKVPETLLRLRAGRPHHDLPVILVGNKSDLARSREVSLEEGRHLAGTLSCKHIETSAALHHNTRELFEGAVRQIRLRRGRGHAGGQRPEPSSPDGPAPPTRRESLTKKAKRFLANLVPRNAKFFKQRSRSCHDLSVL
Nature of the assay: co-IP.

The chains behind the UniProt entries cited, without tags or fusion partners.
UniProt Q9UQM7: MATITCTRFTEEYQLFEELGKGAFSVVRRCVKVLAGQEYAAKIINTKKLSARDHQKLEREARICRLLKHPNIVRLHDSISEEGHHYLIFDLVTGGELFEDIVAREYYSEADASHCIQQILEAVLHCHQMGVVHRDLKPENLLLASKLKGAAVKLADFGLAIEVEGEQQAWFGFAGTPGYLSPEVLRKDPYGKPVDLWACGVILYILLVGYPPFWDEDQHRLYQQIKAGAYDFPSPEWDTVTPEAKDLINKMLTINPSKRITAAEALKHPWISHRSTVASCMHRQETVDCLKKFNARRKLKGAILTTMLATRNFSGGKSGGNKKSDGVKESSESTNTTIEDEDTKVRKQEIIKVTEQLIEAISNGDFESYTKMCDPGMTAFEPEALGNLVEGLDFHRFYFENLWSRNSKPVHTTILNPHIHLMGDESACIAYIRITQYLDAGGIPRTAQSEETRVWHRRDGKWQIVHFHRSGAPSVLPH

No constants are given. Whether binding was seen depends on the method and setting. In cells and extracts the contact can be indirect. Some entries that bind do so weakly or less than the wild type. Sequences can lack the tags named with a protein.

With “myc epitope-tagged CaMKIIα protein (from UniProt Q9UQM7 1-478) (enzyme)”, the binding result was “binds”.
